In patent US20150252079A1 (Affibody, published 2015):
Changes are numbered by the printed parent chain.

Chains of the proteins cited; added tags and fusions are not shown. Lines headed by an entry give the natural chain unless they say otherwise; changes in a name come on top. Residues count along the entry.
UniProt P21860, 20-643 limits assumed: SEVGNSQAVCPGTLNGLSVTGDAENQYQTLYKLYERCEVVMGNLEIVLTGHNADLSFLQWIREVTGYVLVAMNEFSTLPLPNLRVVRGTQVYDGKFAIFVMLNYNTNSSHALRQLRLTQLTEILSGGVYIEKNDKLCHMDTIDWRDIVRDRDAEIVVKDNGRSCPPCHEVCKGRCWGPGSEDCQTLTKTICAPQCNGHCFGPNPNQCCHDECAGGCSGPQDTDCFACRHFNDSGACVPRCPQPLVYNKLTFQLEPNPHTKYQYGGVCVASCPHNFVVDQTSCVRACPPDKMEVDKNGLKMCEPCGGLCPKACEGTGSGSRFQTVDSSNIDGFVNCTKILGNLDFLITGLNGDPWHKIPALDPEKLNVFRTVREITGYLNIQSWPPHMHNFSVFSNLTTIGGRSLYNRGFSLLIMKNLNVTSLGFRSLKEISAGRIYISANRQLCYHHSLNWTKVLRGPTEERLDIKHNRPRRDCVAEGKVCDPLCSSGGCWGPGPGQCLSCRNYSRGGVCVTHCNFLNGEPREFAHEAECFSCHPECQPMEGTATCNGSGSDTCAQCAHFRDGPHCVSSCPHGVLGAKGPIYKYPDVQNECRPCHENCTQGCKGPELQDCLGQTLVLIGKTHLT

B1: SEQ ID NO 71 (designed binder)
chain: AEAKYAKEKYNAYYEIWQLPNLTKYQKAAFIGKLQDDPSQSSELLSEAKKLNDSQAPK
B2: SEQ ID NO 79 (designed binder)
chain: B1 chain with N11E, Y25M
B3: SEQ ID NO 89 (designed binder)
chain: B1 chain with Y14F, Y25W
B4: SEQ ID NO 100 (designed binder)
chain: B1 chain with Y25N
B5: SEQ ID NO 75 (designed binder)
chain: B1 chain with N11S, Y14F
B6: SEQ ID NO 85 (designed binder)
chain: B1 chain with N11A, Q18E, K24V, Y25R
B7: SEQ ID NO 77 (designed binder)
chain: B1 chain with N11S
B8: SEQ ID NO 97 (designed binder)
chain: B1 chain with N11S, Y25F
B9: SEQ ID NO 80 (designed binder)
chain: B1 chain with N11S, K24R
B10: SEQ ID NO 82 (designed binder)
chain: B1 chain with N11T, K24R, Y25M
B11: SEQ ID NO 105 (designed binder)
chain: B1 chain with K24V, Y25R
B12: SEQ ID NO 74 (designed binder)
chain: B1 chain with N11T, Y14F
B13: SEQ ID NO 78 (designed binder)
chain: B1 chain with N11A, Y25M
B14: SEQ ID NO 91 (designed binder)
chain: B1 chain with N11A, G32S
B15: SEQ ID NO 88 (designed binder)
chain: B1 chain with N11M, Y14F, Y25R
B16: SEQ ID NO 104 (designed binder)
chain: B1 chain with N11E, K24V, Y25R
B17: SEQ ID NO 99 (designed binder)
chain: B1 chain with Y25M
B18: SEQ ID NO 96 (designed binder)
chain: B1 chain with N11T, Y25F
B19: SEQ ID NO 98 (designed binder)
chain: B1 chain with N11L, Y25M
B20: SEQ ID NO 95 (designed binder)
chain: B1 chain with K24N, Y25F
B21: SEQ ID NO 93 (designed binder)
chain: B1 chain with N11E, Y25F
B22: SEQ ID NO 73 (designed binder)
chain: B1 chain with N11M, Y14F, Y25W
B23: SEQ ID NO 81 (designed binder)
chain: B1 chain with K24R
B24: SEQ ID NO 101 (designed binder)
chain: B1 chain with N11S, Y25N
B25: SEQ ID NO 90 (designed binder)
chain: B1 chain with N11E, Y14F
B26: SEQ ID NO 103 (designed binder)
chain: B1 chain with N11E, Y25T
B27: SEQ ID NO 76 (designed binder)
chain: B1 chain with N11T
B28: SEQ ID NO 94 (designed binder)
chain: B1 chain with N11A, Y25F
B29: SEQ ID NO 87 (designed binder)
chain: B1 chain with N11S, Y14F, Y25R, Q35E
B30: Z08700-His6 (designed binder)
chain: AEAKYAKEKYSAYYEIWQLPNLTKYQKAAFIGKLQDDPSQSSELLSEAKKLNDSQAPKLEHHHHHH
B31: Z08702-His6 (designed binder)
chain: B30 chain with S11E, Y25M
B32: Z08696-His6 (designed binder)
chain: B30 chain with Y14F
B33: Z08701-His6 (designed binder)
chain: B30 chain with S11A, Y25M

Tests used:
[1] = target: T1, extracellular domain of HER3 (Sino Biological Inc., cat. no. 10201-H08H) (UniProt P21860 20-643, biotinylated (biotin carboxylic acid, succinimidyl ester)); test: flow cytometry, on-cell affinity ranking of S. carnosus-displayed clones with 0.5 or 2 nM biotinylated HER3-ECD
T1 construct: extracellular domain; also called HER3-ECD

[2] = target: T2, recombinant human HER3/Fc chimera (R&D Systems, cat. no. 348-RB-050) (human, UniProt P21860 20-643); test: SPR off-rate ranking, 25 nM Z variant over immobilized human HER3-Fc; against the previously reported koff of Z05417
T2 construct: extracellular domain; Bought reagent; Fc part of the bought chimera not given

Binder | binding result [1] | fold reduction of off-rate compared to Z05417 [2] [fold]
B1 | binds | –
B2 | binds | –
B3 | binds | –
B4 | binds | –
B5 | binds | –
B6 | binds | –
B7 | binds | –
B8 | binds | –
B9 | binds | –
B10 | binds | –
B11 | binds | –
B12 | binds | –
B13 | binds | –
B14 | binds | –
B15 | binds | –
B16 | binds | –
B17 | binds | –

Binder | binding result [1] | fold reduction of off-rate compared to Z05417 [2] [fold]
B18 | binds | –
B19 | binds | –
B20 | binds | –
B21 | binds | –
B22 | binds | –
B23 | binds | –
B24 | binds | –
B25 | binds | –
B26 | binds | –
B27 | binds | –
B28 | binds | –
B29 | binds | –
B30 | – | ≥ 8
B31 | – | ≥ 8
B32 | – | ≥ 8
B33 | – | ≥ 8
